Taken from: PubChem BioAssay AID504786 (Drosophila RNAi Screening Center, 2011)
The deposit covers about 21,000 reagents; shown is a random part of those that have a named target and a result. 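Primary screen; positive scores mean lost reporter signal, so the sign may be inverted from the usual convention.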 Reagents against one gene are numbered here. Further read-outs or replicates are left out here. No sequences are given here.

Assay: 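Positive regulators of HIF-driven reporter output in Drosophila cells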 (primary screen)
Cell system: Drosophila S2 cells with a stable HIF luciferase reporter
Knock-down reagent: long dsRNA against Drosophila genes, about 0.2 µg dsRNA per well of a 384-well plate
Duration: three days of knock-down, then 20 h of DFO before reading
Treatment: desferrioxamine (DFO) at 100 µM, an iron chelator that mimics hypoxia, for 20 h
Measured: 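HIF reporter luminescence in cells given 100 µM DFO for 20 h, using the mouse ldh-a hypoxia-response element, scored as per-plate z-scores; higher means greater loss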
Reading the numbers: z-score: higher = stronger loss of HIF reporter signal

E5 #1 → z-score, replicate 1: 0.6
E5 #2 → z-score, replicate 1: 0.9
CG31883 → z-score, replicate 1: -0.3
CG8298 → z-score, replicate 1: -0.2
Srpk79D (Serine-arginine protein kinase at 79D) #1 → z-score, replicate 1: -0.3
Srpk79D (Serine-arginine protein kinase at 79D) #2 → z-score, replicate 1: -0.3
ND-B12 (NADH dehydrogenase (ubiquinone) B12 subunit) → z-score, replicate 1: 0.1
E(spl)m6-BFM (Enhancer of split m6, Bearded family member) → z-score, replicate 1: -0.5
CG9917 → z-score, replicate 1: -0.2
CG46385 #1 → z-score, replicate 1: 1
CG46385 #2 → z-score, replicate 1: -0.3
CG6304 → z-score, replicate 1: -0.1
papi → z-score, replicate 1: -0.3
PolD2 (DNA polymerase delta subunit 2) → z-score, replicate 1: -0.3
CG3436 → z-score, replicate 1: 2.1
Naa20A (N(alpha)-acetyltransferase 20 A) → z-score, replicate 1: -0.2
hig (hikaru genki) → z-score, replicate 1: -0.3
CG16853 → z-score, replicate 1: -0.1
Arp8 (Actin-related protein 8) → z-score, replicate 1: -0.3
CG2182 → z-score, replicate 1: -0.3
nmd (no mitochondrial derivative) → z-score, replicate 1: -0.2
Uba4 (Ubiquitin-like activating enzyme 4) → z-score, replicate 1: 0
NTPase → z-score, replicate 1: -0.4
CR40354 (pseudo) → z-score, replicate 1: 0.9
CG30480 → z-score, replicate 1: -0.3
CG8665 → z-score, replicate 1: -0.2
CG13062 → z-score, replicate 1: 0.1
ImpL2 (Ecdysone-inducible gene L2) → z-score, replicate 1: -0.4
Met (Methoprene-tolerant) → z-score, replicate 1: -0.3
CG2975 → z-score, replicate 1: -0.1
Reps (RALBP1 associated Eps domain containing) → z-score, replicate 1: -0.4
CG3548 → z-score, replicate 1: -0.3
eIF6 (eukaryotic translation initiation factor 6) → z-score, replicate 1: -0.2
CG12784 → z-score, replicate 1: -0.2
CG13850 → z-score, replicate 1: -0.3
CG15208 → z-score, replicate 1: 0
CG8646 → z-score, replicate 1: -0.3
CG32369 #1 → z-score, replicate 1: -0.4
CG32369 #2 → z-score, replicate 1: -0.4
Lcp65Ag3 (Larval cuticle protein) → z-score, replicate 1: -0.4
tutl (turtle) #1 → z-score, replicate 1: -0.2
tutl (turtle) #2 → z-score, replicate 1: -0.2
tutl (turtle) #3 → z-score, replicate 1: 0.1
CG13937 → z-score, replicate 1: -0.6
dx (deltex) → z-score, replicate 1: -0.2
CG8046 → z-score, replicate 1: -0.4
CG33639 → z-score, replicate 1: -0.3
CG31538 → z-score, replicate 1: -0.3
CG5550 → z-score, replicate 1: 0
AstA (Allatostatin A) → z-score, replicate 1: -0.5
RpS17 (Ribosomal protein S17) → z-score, replicate 1: 6

Records listed so far whose gene name begins with A or a (2):
Arp8 (Actin-related protein 8) → z-score, replicate 1: -0.3
AstA (Allatostatin A) → z-score, replicate 1: -0.5
